These are yes or no findings as the source states them, for the method shown. Some results given as binding are weak or reduced against the parent protein; the word gives no strength.
Experiments:
[1] = biological target: human apolipoprotein B-100 (human) (UniProt P04114); test: SPIFE cholesterol profiling electrophoresis: Lp(a)-cholesterol band only in sera of human Lp(a)+; GULO(-/-) mice
[2] = biological target: human apolipoprotein B-100 (human) (UniProt P04114); test: SPIFE cholesterol profiling electrophoresis of transgenic mouse sera (FIG. 2)
[3] = biological target: human apolipoprotein B-100 (human) (UniProt P04114); test: SPIFE cholesterol profile and immunofixation electrophoresis of Lp(a)+ GULO(-/-) mouse sera (FIGS. 6-8)

Chains of the proteins cited; added tags and fusions are not shown. Residues count along the entry.
UniProt P04114, residues 28-4563: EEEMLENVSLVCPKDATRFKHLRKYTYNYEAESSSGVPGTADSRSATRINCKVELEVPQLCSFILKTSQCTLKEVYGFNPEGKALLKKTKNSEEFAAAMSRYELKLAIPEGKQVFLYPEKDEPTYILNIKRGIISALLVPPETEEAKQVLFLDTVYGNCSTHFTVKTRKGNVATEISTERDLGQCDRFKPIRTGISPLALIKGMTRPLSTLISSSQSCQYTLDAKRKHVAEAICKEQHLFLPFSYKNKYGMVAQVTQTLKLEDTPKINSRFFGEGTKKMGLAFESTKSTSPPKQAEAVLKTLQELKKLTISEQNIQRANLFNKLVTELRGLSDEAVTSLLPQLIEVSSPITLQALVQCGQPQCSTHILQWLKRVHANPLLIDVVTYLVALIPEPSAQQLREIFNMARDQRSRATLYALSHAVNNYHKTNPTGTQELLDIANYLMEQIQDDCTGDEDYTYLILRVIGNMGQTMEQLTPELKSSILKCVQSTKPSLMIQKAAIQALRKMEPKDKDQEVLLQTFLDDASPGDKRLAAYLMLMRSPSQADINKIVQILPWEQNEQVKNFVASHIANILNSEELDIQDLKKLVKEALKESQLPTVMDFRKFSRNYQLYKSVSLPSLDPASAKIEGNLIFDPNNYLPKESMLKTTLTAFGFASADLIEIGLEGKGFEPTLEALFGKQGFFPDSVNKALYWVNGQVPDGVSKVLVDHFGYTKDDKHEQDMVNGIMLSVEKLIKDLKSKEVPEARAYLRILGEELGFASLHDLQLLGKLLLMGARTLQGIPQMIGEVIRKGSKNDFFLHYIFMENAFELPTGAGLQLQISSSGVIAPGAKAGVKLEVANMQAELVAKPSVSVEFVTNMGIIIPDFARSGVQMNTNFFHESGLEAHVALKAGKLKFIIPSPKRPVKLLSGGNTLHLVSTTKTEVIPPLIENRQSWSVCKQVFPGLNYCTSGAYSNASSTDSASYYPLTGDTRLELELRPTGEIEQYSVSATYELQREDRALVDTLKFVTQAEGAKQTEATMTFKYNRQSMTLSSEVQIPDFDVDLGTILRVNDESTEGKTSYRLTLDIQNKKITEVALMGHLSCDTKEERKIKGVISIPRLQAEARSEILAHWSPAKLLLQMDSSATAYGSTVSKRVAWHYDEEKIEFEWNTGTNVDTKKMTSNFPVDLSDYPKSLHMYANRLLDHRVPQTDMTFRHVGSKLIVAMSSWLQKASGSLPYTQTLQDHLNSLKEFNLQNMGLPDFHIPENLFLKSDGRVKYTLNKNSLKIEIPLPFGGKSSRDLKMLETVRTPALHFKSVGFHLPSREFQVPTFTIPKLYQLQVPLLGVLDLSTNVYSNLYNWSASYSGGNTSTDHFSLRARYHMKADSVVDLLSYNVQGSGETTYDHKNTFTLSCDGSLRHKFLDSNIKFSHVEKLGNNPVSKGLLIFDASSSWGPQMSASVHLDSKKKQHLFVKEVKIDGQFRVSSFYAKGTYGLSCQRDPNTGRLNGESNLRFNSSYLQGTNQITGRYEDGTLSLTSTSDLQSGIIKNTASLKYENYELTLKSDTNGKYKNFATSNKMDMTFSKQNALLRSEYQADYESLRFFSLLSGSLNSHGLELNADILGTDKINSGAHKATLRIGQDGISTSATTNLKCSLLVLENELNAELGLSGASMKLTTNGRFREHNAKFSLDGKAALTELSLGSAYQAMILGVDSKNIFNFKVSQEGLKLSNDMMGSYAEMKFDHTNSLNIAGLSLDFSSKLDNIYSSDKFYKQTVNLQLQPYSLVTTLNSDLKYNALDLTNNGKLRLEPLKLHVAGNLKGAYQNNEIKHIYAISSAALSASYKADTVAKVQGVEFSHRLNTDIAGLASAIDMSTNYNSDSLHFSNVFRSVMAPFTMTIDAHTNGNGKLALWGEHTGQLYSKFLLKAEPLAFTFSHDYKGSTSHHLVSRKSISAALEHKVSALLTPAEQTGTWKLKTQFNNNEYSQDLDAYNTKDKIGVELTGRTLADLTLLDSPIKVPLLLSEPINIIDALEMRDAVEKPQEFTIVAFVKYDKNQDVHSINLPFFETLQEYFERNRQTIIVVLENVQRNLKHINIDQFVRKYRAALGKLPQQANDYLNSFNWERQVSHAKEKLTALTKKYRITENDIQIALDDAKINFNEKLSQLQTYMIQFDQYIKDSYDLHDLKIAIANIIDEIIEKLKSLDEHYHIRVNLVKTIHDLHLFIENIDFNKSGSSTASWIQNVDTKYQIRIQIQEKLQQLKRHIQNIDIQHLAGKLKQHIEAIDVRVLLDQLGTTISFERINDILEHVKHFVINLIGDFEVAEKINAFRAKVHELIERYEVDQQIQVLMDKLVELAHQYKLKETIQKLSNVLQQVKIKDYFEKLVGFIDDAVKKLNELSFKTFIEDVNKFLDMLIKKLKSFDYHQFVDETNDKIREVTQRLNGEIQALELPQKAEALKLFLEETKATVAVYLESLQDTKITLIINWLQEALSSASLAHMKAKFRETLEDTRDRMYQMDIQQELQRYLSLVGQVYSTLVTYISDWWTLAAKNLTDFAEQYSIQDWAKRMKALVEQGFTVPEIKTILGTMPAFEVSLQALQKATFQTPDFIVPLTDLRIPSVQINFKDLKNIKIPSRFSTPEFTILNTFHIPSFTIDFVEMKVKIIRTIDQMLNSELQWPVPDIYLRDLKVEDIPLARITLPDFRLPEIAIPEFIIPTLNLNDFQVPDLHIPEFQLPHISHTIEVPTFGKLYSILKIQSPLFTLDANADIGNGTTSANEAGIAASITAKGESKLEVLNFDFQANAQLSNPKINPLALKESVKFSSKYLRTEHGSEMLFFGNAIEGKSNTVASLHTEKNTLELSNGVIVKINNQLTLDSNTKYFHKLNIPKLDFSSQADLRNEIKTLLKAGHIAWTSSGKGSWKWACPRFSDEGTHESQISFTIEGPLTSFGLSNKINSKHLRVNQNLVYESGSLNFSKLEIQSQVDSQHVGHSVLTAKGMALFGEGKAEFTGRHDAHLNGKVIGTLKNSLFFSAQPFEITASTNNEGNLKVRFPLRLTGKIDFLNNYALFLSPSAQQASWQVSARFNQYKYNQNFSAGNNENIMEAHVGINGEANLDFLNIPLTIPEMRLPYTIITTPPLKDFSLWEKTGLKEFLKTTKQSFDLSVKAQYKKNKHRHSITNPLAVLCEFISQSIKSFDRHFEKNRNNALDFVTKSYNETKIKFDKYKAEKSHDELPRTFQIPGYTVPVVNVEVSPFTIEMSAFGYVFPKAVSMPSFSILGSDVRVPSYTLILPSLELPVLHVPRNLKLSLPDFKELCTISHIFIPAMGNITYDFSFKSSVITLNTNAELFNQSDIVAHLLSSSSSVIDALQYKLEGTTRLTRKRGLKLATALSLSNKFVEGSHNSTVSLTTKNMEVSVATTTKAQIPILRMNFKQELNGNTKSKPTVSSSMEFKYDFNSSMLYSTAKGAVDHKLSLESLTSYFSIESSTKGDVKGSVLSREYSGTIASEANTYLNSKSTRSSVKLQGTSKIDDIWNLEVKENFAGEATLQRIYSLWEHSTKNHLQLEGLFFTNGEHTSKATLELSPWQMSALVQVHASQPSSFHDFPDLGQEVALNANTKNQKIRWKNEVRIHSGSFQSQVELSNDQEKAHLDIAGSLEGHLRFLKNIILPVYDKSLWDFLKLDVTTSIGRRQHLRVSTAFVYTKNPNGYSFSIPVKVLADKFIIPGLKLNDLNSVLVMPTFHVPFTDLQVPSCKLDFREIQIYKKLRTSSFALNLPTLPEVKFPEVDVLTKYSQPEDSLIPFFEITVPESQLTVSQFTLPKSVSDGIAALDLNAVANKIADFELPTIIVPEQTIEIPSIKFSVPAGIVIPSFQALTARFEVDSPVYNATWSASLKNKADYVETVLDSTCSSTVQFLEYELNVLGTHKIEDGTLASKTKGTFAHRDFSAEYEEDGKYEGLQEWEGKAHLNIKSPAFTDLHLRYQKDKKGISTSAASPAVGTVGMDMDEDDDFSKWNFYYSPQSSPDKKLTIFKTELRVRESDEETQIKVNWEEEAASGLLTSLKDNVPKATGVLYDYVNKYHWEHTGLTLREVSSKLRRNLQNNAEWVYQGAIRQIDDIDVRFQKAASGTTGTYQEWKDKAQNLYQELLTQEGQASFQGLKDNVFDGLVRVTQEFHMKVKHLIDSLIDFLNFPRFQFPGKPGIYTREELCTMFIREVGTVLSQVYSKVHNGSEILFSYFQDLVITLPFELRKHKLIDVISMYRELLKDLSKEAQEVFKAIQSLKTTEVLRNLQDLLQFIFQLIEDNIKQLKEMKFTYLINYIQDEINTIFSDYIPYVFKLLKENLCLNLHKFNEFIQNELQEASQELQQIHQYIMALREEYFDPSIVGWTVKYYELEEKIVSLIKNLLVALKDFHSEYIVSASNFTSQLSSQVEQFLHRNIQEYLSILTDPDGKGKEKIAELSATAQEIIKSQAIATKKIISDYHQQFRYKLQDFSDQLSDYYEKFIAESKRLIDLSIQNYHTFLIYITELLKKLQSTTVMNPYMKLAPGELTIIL
UniProt P08519, residues 20-2040: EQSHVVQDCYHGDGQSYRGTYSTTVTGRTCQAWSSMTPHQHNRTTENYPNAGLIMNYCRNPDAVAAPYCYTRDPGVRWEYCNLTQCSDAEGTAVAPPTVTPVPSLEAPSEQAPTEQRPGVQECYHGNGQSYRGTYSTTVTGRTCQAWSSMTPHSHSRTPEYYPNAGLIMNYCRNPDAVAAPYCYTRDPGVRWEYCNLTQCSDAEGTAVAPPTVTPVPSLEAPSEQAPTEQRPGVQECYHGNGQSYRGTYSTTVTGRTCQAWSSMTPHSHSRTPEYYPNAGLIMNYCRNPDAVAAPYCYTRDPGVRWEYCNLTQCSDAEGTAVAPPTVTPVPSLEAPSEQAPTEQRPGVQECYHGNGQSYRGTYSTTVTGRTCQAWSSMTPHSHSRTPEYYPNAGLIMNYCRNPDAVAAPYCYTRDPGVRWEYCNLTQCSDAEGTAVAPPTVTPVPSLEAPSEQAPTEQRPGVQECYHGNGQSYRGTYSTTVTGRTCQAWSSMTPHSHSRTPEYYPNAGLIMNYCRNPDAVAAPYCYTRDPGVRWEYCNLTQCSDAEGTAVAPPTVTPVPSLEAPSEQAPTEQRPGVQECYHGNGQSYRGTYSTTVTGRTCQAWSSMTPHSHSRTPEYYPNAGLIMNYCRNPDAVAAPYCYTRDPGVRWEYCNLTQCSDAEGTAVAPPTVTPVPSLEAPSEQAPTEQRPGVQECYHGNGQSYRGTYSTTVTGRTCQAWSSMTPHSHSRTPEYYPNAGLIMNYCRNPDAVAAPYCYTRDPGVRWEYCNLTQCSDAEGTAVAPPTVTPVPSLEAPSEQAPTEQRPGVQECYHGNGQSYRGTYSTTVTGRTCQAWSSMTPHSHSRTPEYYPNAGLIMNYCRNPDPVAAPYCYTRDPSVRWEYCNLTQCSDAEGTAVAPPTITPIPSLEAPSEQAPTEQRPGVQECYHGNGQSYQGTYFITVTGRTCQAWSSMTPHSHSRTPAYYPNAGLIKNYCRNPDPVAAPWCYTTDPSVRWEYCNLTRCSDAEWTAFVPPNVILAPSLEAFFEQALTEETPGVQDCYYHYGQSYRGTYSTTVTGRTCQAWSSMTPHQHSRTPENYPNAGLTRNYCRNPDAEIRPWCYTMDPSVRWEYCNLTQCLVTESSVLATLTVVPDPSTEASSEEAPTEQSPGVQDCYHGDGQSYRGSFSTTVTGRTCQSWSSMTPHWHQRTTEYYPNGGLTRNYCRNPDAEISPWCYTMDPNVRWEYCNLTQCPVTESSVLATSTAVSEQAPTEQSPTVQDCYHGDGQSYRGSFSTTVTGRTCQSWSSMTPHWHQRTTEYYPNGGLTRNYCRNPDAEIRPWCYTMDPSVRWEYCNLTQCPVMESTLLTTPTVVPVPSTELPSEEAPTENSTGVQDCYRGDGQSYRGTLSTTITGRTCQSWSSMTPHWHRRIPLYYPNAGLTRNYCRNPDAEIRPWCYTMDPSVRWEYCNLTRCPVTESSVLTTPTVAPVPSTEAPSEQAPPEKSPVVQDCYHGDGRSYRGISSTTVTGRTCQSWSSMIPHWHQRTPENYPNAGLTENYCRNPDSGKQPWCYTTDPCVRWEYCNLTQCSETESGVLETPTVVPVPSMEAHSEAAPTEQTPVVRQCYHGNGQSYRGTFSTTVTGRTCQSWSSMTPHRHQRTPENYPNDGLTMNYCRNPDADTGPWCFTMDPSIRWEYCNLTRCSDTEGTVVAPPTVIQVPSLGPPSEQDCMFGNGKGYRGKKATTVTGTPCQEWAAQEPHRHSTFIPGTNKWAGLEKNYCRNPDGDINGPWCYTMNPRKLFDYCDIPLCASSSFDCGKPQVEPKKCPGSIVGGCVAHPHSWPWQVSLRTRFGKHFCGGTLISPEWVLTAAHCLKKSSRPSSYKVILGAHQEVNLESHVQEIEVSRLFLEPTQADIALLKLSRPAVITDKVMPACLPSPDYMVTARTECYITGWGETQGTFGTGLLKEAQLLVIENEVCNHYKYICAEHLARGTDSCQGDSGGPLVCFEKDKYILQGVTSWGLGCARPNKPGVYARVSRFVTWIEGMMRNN

Measured: binding

human apolipoprotein (a) (from UniProt P08519 20-2040)
binds: all assays above

— patent US9018437
